Experimental data reported in doi:10.1101/415455.
No constants are given. Whether binding was seen depends on the method and setting. For some assays here: In cells and extracts the contact can be indirect. Some binding calls cover weakened binding; strength is not graded here. Sequences can lack the tags named with a protein. Values belong to the binder of their own block, whether it stands above or below them.

Legend:
[1] = biological target: T1, MSL2 (yeast two-hybrid fusion) (Drosophila) (UniProt P50534); assay: two-hybrid
T1 sequence: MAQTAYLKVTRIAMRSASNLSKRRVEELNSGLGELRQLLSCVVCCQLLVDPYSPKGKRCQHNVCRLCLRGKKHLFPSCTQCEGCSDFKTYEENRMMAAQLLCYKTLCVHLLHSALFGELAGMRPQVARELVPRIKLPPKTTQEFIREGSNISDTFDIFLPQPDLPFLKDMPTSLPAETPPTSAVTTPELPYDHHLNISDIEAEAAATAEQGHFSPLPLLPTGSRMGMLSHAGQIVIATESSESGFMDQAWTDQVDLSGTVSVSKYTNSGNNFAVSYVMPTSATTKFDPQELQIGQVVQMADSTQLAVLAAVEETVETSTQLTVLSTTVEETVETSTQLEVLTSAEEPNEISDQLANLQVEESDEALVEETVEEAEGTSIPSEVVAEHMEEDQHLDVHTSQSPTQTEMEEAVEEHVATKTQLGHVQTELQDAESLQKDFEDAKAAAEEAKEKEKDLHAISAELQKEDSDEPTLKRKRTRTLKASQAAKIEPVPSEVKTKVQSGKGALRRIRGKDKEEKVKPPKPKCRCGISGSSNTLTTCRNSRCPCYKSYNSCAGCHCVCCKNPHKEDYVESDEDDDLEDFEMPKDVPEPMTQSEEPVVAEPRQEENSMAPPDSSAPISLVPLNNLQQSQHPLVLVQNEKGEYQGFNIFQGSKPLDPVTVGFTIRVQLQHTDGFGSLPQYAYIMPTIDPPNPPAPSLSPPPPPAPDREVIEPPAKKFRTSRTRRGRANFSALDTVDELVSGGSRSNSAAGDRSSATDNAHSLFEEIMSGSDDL

[2] = biological target: T2, GST-MSL2[573-708] (Drosophila) (UniProt P50534); assay: pull-down
T2 sequence: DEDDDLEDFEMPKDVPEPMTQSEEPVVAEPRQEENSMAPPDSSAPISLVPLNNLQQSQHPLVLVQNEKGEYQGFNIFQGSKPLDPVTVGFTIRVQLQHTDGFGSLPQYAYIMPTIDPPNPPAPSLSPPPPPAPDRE

[3] = biological target: T3, GST-CLAMP[1-196] (Drosophila) (UniProt Q9V9N4); assay: pull-down
T3 sequence: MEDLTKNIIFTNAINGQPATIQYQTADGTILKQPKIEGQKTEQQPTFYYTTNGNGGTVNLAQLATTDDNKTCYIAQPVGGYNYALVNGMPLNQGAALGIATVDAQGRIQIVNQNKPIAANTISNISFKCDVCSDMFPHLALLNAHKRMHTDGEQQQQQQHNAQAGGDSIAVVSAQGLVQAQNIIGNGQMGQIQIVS

[4] = biological target: T4, Thioredoxin-6xHis-CLAMP[1-196] (Drosophila) (UniProt Q9V9N4); assay: pull-down
T4 sequence: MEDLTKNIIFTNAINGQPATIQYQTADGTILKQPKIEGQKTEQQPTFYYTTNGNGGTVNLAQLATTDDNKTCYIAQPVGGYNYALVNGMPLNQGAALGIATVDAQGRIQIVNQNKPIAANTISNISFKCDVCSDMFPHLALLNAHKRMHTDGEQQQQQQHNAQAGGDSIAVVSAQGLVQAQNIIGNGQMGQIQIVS

[5] = biological target: T5, Thioredoxin-6xHis-MSL2[573-708] (Drosophila) (UniProt P50534); assay: pull-down
T5 sequence: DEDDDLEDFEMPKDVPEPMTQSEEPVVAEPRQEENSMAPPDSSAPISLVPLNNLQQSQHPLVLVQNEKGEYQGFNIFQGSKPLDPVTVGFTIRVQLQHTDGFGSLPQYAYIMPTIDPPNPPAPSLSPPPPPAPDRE

3xHA-CLAMP (Drosophila) = biological target: T6, 3xHA-CLAMP (Drosophila) (UniProt Q9V9N4); assay: co-IP
T6 sequence: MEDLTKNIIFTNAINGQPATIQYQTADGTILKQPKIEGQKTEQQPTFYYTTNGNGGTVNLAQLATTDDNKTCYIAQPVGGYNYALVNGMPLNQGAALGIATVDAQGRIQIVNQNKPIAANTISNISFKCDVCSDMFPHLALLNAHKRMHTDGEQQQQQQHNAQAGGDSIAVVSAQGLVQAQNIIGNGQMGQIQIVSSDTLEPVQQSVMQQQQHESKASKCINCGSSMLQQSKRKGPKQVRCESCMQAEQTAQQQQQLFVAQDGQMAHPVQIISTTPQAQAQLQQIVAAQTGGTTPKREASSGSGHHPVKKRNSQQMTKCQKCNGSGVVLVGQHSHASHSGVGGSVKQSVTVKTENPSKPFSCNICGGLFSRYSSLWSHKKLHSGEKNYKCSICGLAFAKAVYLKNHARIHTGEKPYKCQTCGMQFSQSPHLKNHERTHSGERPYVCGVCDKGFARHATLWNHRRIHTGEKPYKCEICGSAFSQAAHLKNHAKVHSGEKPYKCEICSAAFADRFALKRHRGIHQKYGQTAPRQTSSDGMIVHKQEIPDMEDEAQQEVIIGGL

B1: CLAMP (yeast two-hybrid fusion) (protein, UniProt Q9V9N4 1-561)
chain: MEDLTKNIIFTNAINGQPATIQYQTADGTILKQPKIEGQKTEQQPTFYYTTNGNGGTVNLAQLATTDDNKTCYIAQPVGGYNYALVNGMPLNQGAALGIATVDAQGRIQIVNQNKPIAANTISNISFKCDVCSDMFPHLALLNAHKRMHTDGEQQQQQQHNAQAGGDSIAVVSAQGLVQAQNIIGNGQMGQIQIVSSDTLEPVQQSVMQQQQHESKASKCINCGSSMLQQSKRKGPKQVRCESCMQAEQTAQQQQQLFVAQDGQMAHPVQIISTTPQAQAQLQQIVAAQTGGTTPKREASSGSGHHPVKKRNSQQMTKCQKCNGSGVVLVGQHSHASHSGVGGSVKQSVTVKTENPSKPFSCNICGGLFSRYSSLWSHKKLHSGEKNYKCSICGLAFAKAVYLKNHARIHTGEKPYKCQTCGMQFSQSPHLKNHERTHSGERPYVCGVCDKGFARHATLWNHRRIHTGEKPYKCEICGSAFSQAAHLKNHAKVHSGEKPYKCEICSAAFADRFALKRHRGIHQKYGQTAPRQTSSDGMIVHKQEIPDMEDEAQQEVIIGGL
binding [1]: binds

B3: Thioredoxin-6xHis-MSL2[573-708] (domain or fragment, UniProt P50534 573-708)
chain: DEDDDLEDFEMPKDVPEPMTQSEEPVVAEPRQEENSMAPPDSSAPISLVPLNNLQQSQHPLVLVQNEKGEYQGFNIFQGSKPLDPVTVGFTIRVQLQHTDGFGSLPQYAYIMPTIDPPNPPAPSLSPPPPPAPDRE
binding [3]: binds

B4: GST-MSL2[573-708] (domain or fragment, UniProt P50534 573-708)
chain: DEDDDLEDFEMPKDVPEPMTQSEEPVVAEPRQEENSMAPPDSSAPISLVPLNNLQQSQHPLVLVQNEKGEYQGFNIFQGSKPLDPVTVGFTIRVQLQHTDGFGSLPQYAYIMPTIDPPNPPAPSLSPPPPPAPDRE
binding [4]: binds

B6: Thioredoxin-6xHis-tagged CLAMP region 86-153 (domain or fragment, UniProt Q9V9N4 86-153)
chain: VNGMPLNQGAALGIATVDAQGRIQIVNQNKPIAANTISNISFKCDVCSDMFPHLALLNAHKRMHTDGE
binding [2]: binds

B8: 3xFLAG-tagged MSL2^Δ13dΔB (protein, UniProt P50534)
chain: MAQTAYLKVTRIAMRSASNLSKRRVEELNSGLGELRQLLSCVVCCQLLVDPYSPKGKRCQHNVCRLCLRGKKHLFPSCTQCEGCSDFKTYEENRMMAAQLLCYKTLCVHLLHSALFGELAGMRPQVARELVPRIKLPPKTTQEFIREGSNISDTFDIFLPQPDLPFLKDMPTSLPAETPPTSAVTTPELPYDHHLNISDIEAEAAATAEQGHFSPLPLLPTGSRMGMLSHAGQIVIATESSESGFMDQAWTDQVDLSGTVSVSKYTNSGNNFAVSYVMPTSATTKFDPQELQIGQVVQMADSTQLAVLAAVEETVETSTQLTVLSTTVEETVETSTQLEVLTSAEEPNEISDQLANLQVEESDEALVEETVEEAEGTSIPSEVVAEHMEEDQHLDVHTSQSPTQTEMEEAVEEHVATKTQLGHVQTELQDAESLQKDFEDAKAAAEEAKEKEKDLHAISAELQKEDSDEPTLKRKRTRTLKASQAAKIEPVPSEVKTKVQSGKGALRRIRGKDKEEKVKPPKPKCRCGISGSSNTLTTCRNSRCPCYKSYNSCAGCHCVCCKNPHKEDYVESDEDDDLEDFEMPKDVPEPMTQSEEPVVAEPRQEENSMAPPDSSAPISLVPLNNLQQSQHPLVLVQNEKGLDPVTVGFTIRVQLQHTDGFGSLPQYAYIMPTIDPPNPPAPSLSPPPPPAPDREVIEPPANFSALDTVDELVSGGSRSNSAAGDRSSATDNAHSLFEEIMSGSDDL
binding (3xHA-CLAMP (Drosophila)): no binding

Results, then the binder that gave them:

binding [2]: binds
B2: Thioredoxin-6xHis-CLAMP[1-196] (domain or fragment, UniProt Q9V9N4 1-196)
chain: MEDLTKNIIFTNAINGQPATIQYQTADGTILKQPKIEGQKTEQQPTFYYTTNGNGGTVNLAQLATTDDNKTCYIAQPVGGYNYALVNGMPLNQGAALGIATVDAQGRIQIVNQNKPIAANTISNISFKCDVCSDMFPHLALLNAHKRMHTDGEQQQQQQHNAQAGGDSIAVVSAQGLVQAQNIIGNGQMGQIQIVS

binding [5]: binds
B5: GST-CLAMP[1-196] (domain or fragment, UniProt Q9V9N4 1-196)
chain: MEDLTKNIIFTNAINGQPATIQYQTADGTILKQPKIEGQKTEQQPTFYYTTNGNGGTVNLAQLATTDDNKTCYIAQPVGGYNYALVNGMPLNQGAALGIATVDAQGRIQIVNQNKPIAANTISNISFKCDVCSDMFPHLALLNAHKRMHTDGEQQQQQQHNAQAGGDSIAVVSAQGLVQAQNIIGNGQMGQIQIVS

binding (3xHA-CLAMP (Drosophila)): binds
B7: 3xFLAG-tagged MSL2^ΔB (protein, UniProt P50534)
chain: MAQTAYLKVTRIAMRSASNLSKRRVEELNSGLGELRQLLSCVVCCQLLVDPYSPKGKRCQHNVCRLCLRGKKHLFPSCTQCEGCSDFKTYEENRMMAAQLLCYKTLCVHLLHSALFGELAGMRPQVARELVPRIKLPPKTTQEFIREGSNISDTFDIFLPQPDLPFLKDMPTSLPAETPPTSAVTTPELPYDHHLNISDIEAEAAATAEQGHFSPLPLLPTGSRMGMLSHAGQIVIATESSESGFMDQAWTDQVDLSGTVSVSKYTNSGNNFAVSYVMPTSATTKFDPQELQIGQVVQMADSTQLAVLAAVEETVETSTQLTVLSTTVEETVETSTQLEVLTSAEEPNEISDQLANLQVEESDEALVEETVEEAEGTSIPSEVVAEHMEEDQHLDVHTSQSPTQTEMEEAVEEHVATKTQLGHVQTELQDAESLQKDFEDAKAAAEEAKEKEKDLHAISAELQKEDSDEPTLKRKRTRTLKASQAAKIEPVPSEVKTKVQSGKGALRRIRGKDKEEKVKPPKPKCRCGISGSSNTLTTCRNSRCPCYKSYNSCAGCHCVCCKNPHKEDYVESDEDDDLEDFEMPKDVPEPMTQSEEPVVAEPRQEENSMAPPDSSAPISLVPLNNLQQSQHPLVLVQNEKGEYQGFNIFQGSKPLDPVTVGFTIRVQLQHTDGFGSLPQYAYIMPTIDPPNPPAPSLSPPPPPAPDREVIEPPANFSALDTVDELVSGGSRSNSAAGDRSSATDNAHSLFEEIMSGSDDL
